Data source: PubChem BioAssay AID1224830 (NIAID, 2016)
Assay: 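Genes whose knock-down alters the TNF-alpha reporter response to LPS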 (primary screen). Cell system: human THP-1 monocytic leukaemia cells, TNF dual-luciferase reporter clone, PMA-differentiated to macrophage-like cells. Reagents: siRNA pool against human genes, 50 nM. Timing: LPS for 4 h, given about 3 days after siRNA transfection. Challenge: bacterial LPS (TLR4 ligand), 10 ng/ml. Measured: 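Ratio of firefly to renilla light, scaled to the plate median and expressed as a robust z-score per replicate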. Reading the numbers: TNF reporter robust z-score: higher = stronger TNF reporter response to LPS. Active means: 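Each well counts as active if its z-score is over 2.8 or under -1.5; controls are left without a call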.
This is one part, drawn at random, of about 18,000 reagents. In the full data, about 2,900 (16%) were called active. 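Calls are made per well; low scores hint the gene aids the LPS response, high scores that it dampens it.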 Entries without a mark were called inactive. Reagents against one gene are numbered here. Repeated entries: four replicate wells of each siRNA pool.

FIGNL1: TNF reporter robust z-score = -0.03
FIGNL1: TNF reporter robust z-score = -0.8
FIGNL1: TNF reporter robust z-score = -1.39
FIGNL1: TNF reporter robust z-score = -0.43
STEEP1: TNF reporter robust z-score = -1.22
STEEP1: TNF reporter robust z-score = -0.86
STEEP1: TNF reporter robust z-score = -0.71
STEEP1: TNF reporter robust z-score = -0.72
LIX1L: TNF reporter robust z-score = 0.5
LIX1L: TNF reporter robust z-score = 0.38
LIX1L: TNF reporter robust z-score = 1.94
LIX1L: TNF reporter robust z-score = 0.65
MTUS1: TNF reporter robust z-score = -0.79
MTUS1: TNF reporter robust z-score = -1.11
MTUS1: TNF reporter robust z-score = -0.67
MTUS1: TNF reporter robust z-score = -0.25
FBXO6: TNF reporter robust z-score = -0.34
FBXO6: TNF reporter robust z-score = 0.32
FBXO6: TNF reporter robust z-score = -0.32
FBXO6: TNF reporter robust z-score = 2.03
CFAP74 #1: TNF reporter robust z-score = -0.26
CFAP74 #1: TNF reporter robust z-score = 1.42
CFAP74 #1: TNF reporter robust z-score = 1.11
CFAP74 #1: TNF reporter robust z-score = 0.85
CFAP74 #2: TNF reporter robust z-score = 0.19
CFAP74 #2: TNF reporter robust z-score = 0.92
CFAP74 #2: TNF reporter robust z-score = 0.64
CFAP74 #2: TNF reporter robust z-score = 0.62
CDS1: TNF reporter robust z-score = 0.4
CDS1: TNF reporter robust z-score = 1.1
CDS1: TNF reporter robust z-score = 0.34
CDS1: TNF reporter robust z-score = 0.81
DAO: TNF reporter robust z-score = 0.58
DAO: TNF reporter robust z-score = 1.37
DAO: TNF reporter robust z-score = 0.38
DAO: TNF reporter robust z-score = 1.75
ATCAY: TNF reporter robust z-score = 4.61 (active)
ATCAY: TNF reporter robust z-score = 0.47
ATCAY: TNF reporter robust z-score = -0.14
ATCAY: TNF reporter robust z-score = 1.05
CCL8: TNF reporter robust z-score = 0.39
CCL8: TNF reporter robust z-score = -0.11
CCL8: TNF reporter robust z-score = 1.07
CCL8: TNF reporter robust z-score = 0.97
HTATIP2: TNF reporter robust z-score = 1.85
HTATIP2: TNF reporter robust z-score = 0.04
HTATIP2: TNF reporter robust z-score = 0.22
HTATIP2: TNF reporter robust z-score = 1.45

Already shown: entries from further up.
FBXO6: TNF reporter robust z-score = 2.03
CFAP74 #1: TNF reporter robust z-score = -0.26
CFAP74 #1: TNF reporter robust z-score = 1.42
